Results as given in PubChem BioAssay AID638 (SRMLSC, 2007).
The whole screen tested about 1,300 compounds, of which about 65 (5%) were called active.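 How the source made its calls: active means growth inhibition reaching a set limit at one or more tested doses; inactive means the rest.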 This is one part of the list. Measured potencies and affinities stand elsewhere.

Assay: wild-type E. coli BW25113 antibacterial activity – OD615, dose response (AID 638)
Settings: at 100 µM (top of the series) unless noted
Procedure, shortened: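 Assay system: E. coli BW25113 wild type. Doses: compound concentration series. Timing: 20 h compound exposure, 37 °C. Technique: OD615 absorbance. Medium: LB broth containing kanamycin at 50 µg/mL. Benchmarks: chloramphenicol at 30 µM final as inhibition control. Measure: IC50 from 4-parameter logistic, bounds fixed 0–100%.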

Growth inhibition, inactive:
Cc1ccc2cc(C(c3nnnn3C3CCCC3)N(Cc3cccnc3)Cc3ccco3)c(=O)[nH]c2c1 (stereo not given) -6.03%, O=C(Nc1nc(-c2ccccn2)cs1)c1ccc(Cl)s1 2.27% [at 50 µM], Cc1ccc(-c2nnc3sc(CCc4ccccc4)nn23)cc1 9.95%, COc1ccccc1C(=O)Nc1nnc(-c2ccc3c(c2)CCCC3)o1 2.77%, CCCCCSc1nnc(-c2cc(Br)ccc2N)c(=O)[nH]1 -4.38%, O=S(=O)(Nc1cccc2ncccc12)c1cccs1 2.77%, Oc1ccc(Cl)cc1-c1cc(-c2ccccc2)n[nH]1 12%, COC(=O)c1ccc(O)c(Sc2cc(C(=O)OC)ccc2O)c1 18.2% [at 50 µM], CCCCCn1c(SCCC(C)C)nc2c1c(=O)[nH]c(=O)n2C -3.56%, Cc1ccc(-c2nnn(CC(=O)N(Cc3ccco3)C(C(=O)NC(C)(C)C)c3cccs3)n2)o1 (stereo not given) 1.45%, CCOC(=O)c1cnc(-n2nc(C)cc2C)nc1NCc1ccccc1 2.47%, Cc1oc2c(CN3CCOCC3)c(O)ccc2c(=O)c1-c1ccc(Br)cc1 0.4%, CCCCCCn1c(CN2CCCC(C)C2)nc2c1c(=O)n(C)c(=O)n2C (stereo not given) -5.27%, CCn1c(C(=O)NCCCc2ccccc2)cc2sccc21 2.23%, CC1CN(c2oc(COc3ccc(Cl)cc3Cl)nc2C#N)CC(C)O1 (stereo not given) -6.32%, O=C(c1ccc2c(=O)n(C3CCCC3)c(=S)[nH]c2c1)N1CCN(C2CCCCC2)CC1 12.5%, COc1ccc(OC)c(S(=O)(=O)n2cnc3cc(C)c(C)cc32)c1 -5.06%, CC(=O)c1sc(NC(=O)C2(F)C(F)(F)C(F)(F)C(F)(F)C(F)(F)C2(F)F)nc1C 15.7%, O=C1NC(Nc2nc3ccccc3s2)(C(F)(F)F)C(=O)N1C1CCCCC1 (stereo not given) -4.49%, Cc1ccc(-c2noc(CN3CCN(c4ccccc4F)CC3)n2)cc1 -1.59%, N#Cc1nc(Cc2cccc3ccccc23)oc1NCCCn1ccnc1 2.47%, c1csc(-c2noc(COc3ccc4c(c3)CCCC4)n2)c1 14.2%, Cc1cc(NS(=O)(=O)c2ccc(NC(=O)COc3ccccc3C(C)C)cc2)no1 2.63%, CCCOc1ccc2c3c(c(=O)oc2c1OCCC)CCC3 3.86%, O=C(CSc1nc(O)c(C2CCCCC2)c(=O)[nH]1)Nc1ccc(Cl)cc1 2.12%, CC(OC(=O)c1ccccc1NCc1ccco1)C(=O)Nc1ncc(Cl)cc1Cl (stereo not given) 11.2%, Cn1c(=O)c2c(nc(N3CCCCCC3)n2Cc2cccc3ccccc23)n(C)c1=O -1.26%, Cn1c(=O)c2c(SCc3cccnc3)nc(CC(C)(C)C)nc2n(C)c1=O 1.92%, FC(F)(F)c1cccc(N2CCN(c3nnnn3-c3ccccc3)CC2)c1 -6.58%, Cc1cccc(C(C)(C)C)c1OCCn1ccnc1 18.9%, O=C(Nc1ccc(CN2CCOCC2)cc1)c1ccc(-c2ccc(Br)cc2)o1 1.12%, Cc1cc(C)c(C#N)c(SCS(=O)c2ccc(C(C)(C)C)cc2)n1 (stereo not given) 5.36%, COc1ccccc1-c1cc(C(=O)NCc2ccc(F)cc2)no1 -0.01%, COc1ccc(NC(=O)c2cc(-c3cc(C)cc(C)c3O)n[nH]2)cc1Cl -4.57%, CCN(c1ccccc1)S(=O)(=O)c1ccc(NCC2COc3ccccc3O2)nc1 (stereo not given) -13.3%, CCCCc1c(C)nn(-c2nnc3c4ccccc4n(CC)c3n2)c1C -6.59%, O=S(=O)(Nc1ccc(S(=O)(=O)N2CCCCC2)cc1)c1ccc(Br)s1 -0.13%, Cc1cccc(NC(=O)c2cc3n(n2)C(C(F)(F)F)CC(c2ccc4c(c2)OCO4)N3)c1 (stereo not given) -11.5%, Brc1ccccc1Cn1c(-c2cncs2)nc2ccccc21 6.72%, CCn1c(=O)c(C(=O)Nn2c(C)nc3ccccc3c2=O)c(O)c2ccccc21 2.63%, COc1ccc(-c2nnc(SCc3cc(C)cc(C)c3)o2)cc1 -1.05%, O=C(CN(C(=O)CNC(=O)c1ccco1)c1ccc(Cl)c(Cl)c1)NC1CCCCC1 5.13%, CCOC(=O)c1ccc(N2C(=O)c3n[nH]c(C)c3C2c2ccc(OC)cc2OC)cc1 (stereo not given) 3.29%, O=C(CNCCC1=CCCCC1)Nc1ccccc1N1CCCCC1 9.23%, O=C1c2[nH]nc(-c3ccccc3O)c2C(c2ccccc2)N1Cc1ccco1 (stereo not given) 5.54%, N#CC1=C(N)SC(N)=C(C#N)C1CCC1CCCCC1 8.16%, C(=C\c1ccccc1)/CN1CCN(c2ncnc3c2oc2ccccc23)CC1 -1.65%, O=S(=O)(Nc1cc(Cl)ccc1N1CCCCC1)c1cccs1 5.8%, Cc1noc(NS(=O)(=O)c2ccc(NC(=O)COc3ccc(Cl)cc3Cl)cc2)c1C 4.82%, N#Cc1c(NC(=O)c2ccc(Br)o2)n(-c2ccccc2)c2nc3ccccc3nc12 -13.4%, CCOc1ccc2[nH]c3c(N4CCN(c5ccccn5)CC4)ncnc3c2c1 -8.17%, Cn1c(C(=O)N2CCc3ccccc3C2)cc2oc3ccccc3c21 -8.41%, Cc1onc(-c2ccccc2)c1C(=O)Nc1nnc(N(C)Cc2ccccc2)s1 -16.6%, O=C1c2ccccc2C(Nc2cccc(C(F)(F)F)c2)N1Cc1ccco1 (stereo not given) 0.2%, CCOC(=O)c1cc2c(ccn2C)n1Cc1ccccc1C 9.69%, O=c1c2cc3ccccc3n2cnn1Cc1ccccc1F 3.01%, CCOC(=O)c1cc2sccc2n1Cc1ccc(C#N)cc1 -10.3%, O=C(Nc1ccc(N2CCN(C(=O)c3ccco3)CC2)c(Cl)c1)c1c(F)c(F)c(F)c(F)c1F -3.01%, O=C(NCc1ccccc1)c1c[nH]c2ccc(S(=O)(=O)Nc3ccc4c(c3)OCCO4)cc2c1=O -5.14%, O=c1[nH]c(=O)n(C2CCCCCC2)c(O)c1C=NCc1ccc(F)cc1 -0.14%, CCOC(=O)c1csc(Nc2nc3ccc(F)cc3s2)n1 -3.01%, COc1ccc(-c2nc(-c3cccs3)c(-c3cccs3)[nH]2)cc1O 1.9%, CCOC(=O)C1C(=O)C=C(c2ccc(OC)cc2)CC1c1ccco1 (stereo not given) 1.71%, CC1Cc2ccccc2N1C(=O)Cn1c(=O)oc2cc(S(=O)(=O)NC3CCCC3)ccc21 (stereo not given) -0.61%, COc1ccc(/C=N/n2c(SC)nnc2-c2ccccc2)cc1C -3.03%, N#CC1=C(N)Oc2n[nH]c(-c3cccs3)c2C1c1ccsc1 (stereo not given) 8.94%, Cc1nc2c(-c3ccccc3)c(C)[nH]n2c(=O)c1Cl -13.3%, O=C(c1cc(C2CC2)on1)N1CCN(C(c2ccccc2)c2ccccc2)CC1 -2.11%, CCn1c(C(=O)N2CCC(Cc3ccccc3)CC2)cc2sccc21 -18.6%, Cc1cccc(N2CCN(C(=O)c3ccc(NS(=O)(=O)c4c(C)noc4C)cc3)CC2)c1C 11.1%, O/N=C(\c1ccc(Cl)cc1)c1cc2ccccc2o1 8.62%, CSCCOC(=O)C1=C(C)NC(=O)CC1c1ccccc1Cl (stereo not given) 3.74%, Cc1ccc(-c2noc(CCC(=O)N3CCN(c4cccc(C(F)(F)F)c4)CC3)n2)cc1 6.7%, C=CCOC(=O)C(C#N)c1nc2ccccc2nc1N1CCN(Cc2ccccc2)CC1 (stereo not given) -7.11%, OC(COc1ccc(Cl)c2ccccc12)CN1CCN(c2ccccn2)CC1 (stereo not given) 1.32%, O=C(c1ccc(COc2c(F)c(F)cc(F)c2F)o1)N1CCN(c2ccc(Cl)cc2)CC1 -1.68%, CC(C)COC(=O)NCCOC(=O)Nc1cccc(Cl)c1 18.9%, Cc1cccnc1Nc1nc(-c2ccc(O)cc2O)cs1 17.4%, Cc1cc(=O)oc2c1ccc1oc(/C(=N/O)c3ccccc3)c(C)c12 -1.42%, Cc1cc(N2CCN(C(c3ccccc3)c3ccccc3)CC2)n2ncnc2n1 6.9%, CCc1cc2c(=O)n(Cc3ccco3)c(SCc3c(C)noc3C)nc2s1 -12.8%, CCOC(=O)c1c(C)oc2ccc(NS(=O)(=O)c3ccc4c5c(cccc35)C(=O)N4)cc12 6.6%, N#Cc1c(NC(NC(=O)c2ccco2)C(=O)c2ccccc2)sc2c1CCCC2 (stereo not given) 9.36%, Cc1ccccc1-c1nc(CN2CCC(C(=O)NCCC3=CCCCC3)CC2)c(C)o1 7.04%, c1ccc2oc(SCc3nc4ccccc4s3)nc2c1 7.38%, CCCn1c(=O)c(C(=O)Nc2nnc(C)s2)c(O)c2ccccc21 -8.85%, Cc1nn(Cc2ccccc2)c(C)c1C(=O)OCC(=O)c1cc(C)n(C2CC2)c1C -2.91%, CCCN(CCC)S(=O)(=O)c1ccc(C(=O)Nc2nnc(-c3cccc(OC)c3)o2)cc1 -2.06%, CCOC(=O)N1CCN(c2nc(N(c3ccccc3)c3ccccc3)nc(-n3ccnc3)n2)CC1 -3.06%, COC(=O)CNS(=O)(=O)c1ccc(Cc2ccc(S(=O)(=O)NCC(=O)OC)cc2)cc1 12.8%
